For one compound, Yield of glutamate results are on record in patent US6472541B2, “Protecting groups with increased photosensitivities” (The Regents of the University of California, priority 1998, dated 2002).

Each structure is given as a SMILES string.

The nature of the series: Glutamate released from compound 7 upon photolysis, quantified as fluorescamine derivative by HPLC. The class given is physicochemical. As to conditions: 100 μM 7, pH 7.2 KMOPS, 365 nm irradiation.

As to `O=C(O)CC[C@H](NC(=O)OCc1cc(=O)oc2cc(O)c(Br)cc12)C(=O)O` [Compound 7, N-(6-Bromo-7-hydroxycoumarin-4-yl)methoxycarbonyl glutamate], the Yield of glutamate (30 seconds) is given as 27.6%, the Yield of glutamate (60 seconds) was 52.7%, the Yield of glutamate (90 seconds) turned out to be 74.5% and the Yield of glutamate (120 seconds) came to 98.7%.
